# Data published in the supplement of paper PMC12823440, “Inhibitors supercharge kinase turnover through native proteolytic circuits” (Nature, 2025).
# Sequences of proteins named here, by UniProt entry; tags and fusion partners are left off.
# UniProt P07947, whole entry, looked up: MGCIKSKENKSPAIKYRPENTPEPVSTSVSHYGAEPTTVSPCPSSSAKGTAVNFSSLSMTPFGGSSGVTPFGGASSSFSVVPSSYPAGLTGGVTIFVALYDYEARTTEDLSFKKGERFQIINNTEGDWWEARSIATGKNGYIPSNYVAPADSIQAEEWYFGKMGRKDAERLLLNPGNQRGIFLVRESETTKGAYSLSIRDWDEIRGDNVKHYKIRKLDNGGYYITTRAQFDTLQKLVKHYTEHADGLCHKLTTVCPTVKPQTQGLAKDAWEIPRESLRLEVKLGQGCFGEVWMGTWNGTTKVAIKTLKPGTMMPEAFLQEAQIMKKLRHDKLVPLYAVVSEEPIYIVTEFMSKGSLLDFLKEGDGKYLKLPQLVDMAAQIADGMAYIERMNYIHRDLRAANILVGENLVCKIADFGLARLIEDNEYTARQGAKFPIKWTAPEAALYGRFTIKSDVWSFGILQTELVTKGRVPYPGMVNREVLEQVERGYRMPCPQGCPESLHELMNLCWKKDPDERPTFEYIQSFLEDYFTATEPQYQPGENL
# Structures can show the parent of a compound that is named as a salt. The list shows a part of the results. The calls rarely recur for the same compound in another form.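 In K562 cells expressing nanoluciferase-fused kinases, luminescence was recorded at 4 h intervals between 2 and 18 h, normalized as percent of control with DMSO at 100% and a positive control at 0%. A significant (2 sigma) signal drop marks a time point as decreased. The authors' rule for a hit is not shown and takes in more than the number of time points.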
# Molecular target: YES1 (UniProt P07947)
# Assay: number of time points (of 5) at which kinase-Nluc abundance scored as decreased, DMSO-normalised (count); higher = more persistent destabilization
# Conditions: K562; 2-18 h
row,SMILES,number of time points
1,O=Nc1c(-c2c(O)[nH]c3cc(Br)ccc23)[nH]c2ccccc12 [GSK 3 Inhibitor IX] (2.5 µM),0
2,C#Cc1cccc(Nc2ncnc3cc(OC)c(NC(=O)N4C[C@H]5CCN(C)[C@H]5C4)cc23)c1 [Theliatinib] (10 µM),0
3,Fc1ccc2[nH]ccc2c1-c1nc(N2CCOCC2)c2sc(CN3CCN(CC4CC4)CC3)cc2n1 (10 µM),0
4,COc1c(O)cc2oc(-c3ccc(O)cc3)cc(=O)c2c1O [Hispidulin] (10 µM),0
5,Cc1cc(CSc2ccccc2C(=O)NCCNc2ccc(C(F)(F)F)cc2[N+](=O)[O-])on1 (10 µM),0

# Molecular target: ZAK (UniProt Q9NYL2)
# Assay: as above
# Conditions: K562; 2-18 h
row,SMILES,number of time points
1,Cc1cc(C(=O)NC(C)(C)C)cc(C#Cc2ccc3c4c(oc3c2)C(C)(C)c2cc(NS(C)(=O)=O)ccc2C4=O)n1 (10 µM),0
2,COCCOc1ccc2c(c1)ncn2-c1ccc2cccc(N3CCC(N)CC3)c2n1 (10 µM),0
3,COc1ccc2c(Oc3ccc4c(C(=O)Nc5ccccc5N)cccc4c3)ccnc2c1 [Chiauranib] (10 µM),0
4,COc1cc2c(cc1OC)/C(=C/c1ccc(O)cc1)C(=O)N2 (10 µM),0
5,COc1cc2ncnc(Nc3ccc(O)c(Br)c3)c2cc1OC (10 µM),0
6,O=C(O)[C@H]1O[C@@H](Oc2cc3oc(-c4ccc(O)cc4)cc(=O)c3c(O)c2O)[C@H](O)[C@@H](O)[C@@H]1O [Scutellarin] (10 µM),0
7,NCCOc1ccc(Cl)cc1C(=O)Nc1ccc([N+](=O)[O-])cc1Cl [HJC0152 hydrochloride] (2 µM),0
8,CC(Sc1nc2c(cnn2-c2cccc(Cl)c2)c(=O)[nH]1)C(N)=O (stereo not drawn) (10 µM),0
9,N#C/C(=C\c1ccc(O)c(O)c1)C(=O)O [Tyrphostin AG30] (10 µM),0
10,COc1cc(N2CCOCC2)ccc1Nc1ncc(F)c(Nc2ccccc2NS(C)(=O)=O)n1 (10 µM),0
11,CCC(=O)Nc1cccc(Oc2nc(Nc3ccc(N4CCN(C)CC4)cc3OC)ncc2Cl)c1 (10 µM),0
12,O=C1OC(/C=C/c2ccccc2)=NC/1=C\c1cccnc1 (10 µM),0
13,Cc1cccc(-c2[nH]ncc2-c2ccnc3ccccc23)n1 (10 µM),0
14,C=CC(=O)Nc1cc(Nc2nccc(-c3cn(C)c4ccccc34)n2)c(OC)cc1OCCN(C)C [Rezivertinib] (2.5 µM),0
15,Nc1nc(N)c2nc(-c3cccc(O)c3)c(-c3cccc(O)c3)nc2n1 (10 µM),0
16,CCN1CCN(Cc2cnc(Nc3cc(-c4cc(F)c5nc(C)n(C(C)C)c5c4)c(F)cn3)nc2)CC1 (10 µM),0
17,Nc1[nH]nc2nc(-c3ccc(NS(=O)(=O)c4cc(Cl)ccc4Cl)cc3)cnc12 (10 µM),0
18,C=CC(=O)Nc1cccc(Oc2nc(Nc3ccc(N4CCN(C)CC4)c(F)c3)nc3[nH]ccc23)c1 [Avitinib (maleate)] (2.5 µM),0
19,Nc1nc(NCCNc2ncc(-n3ccnc3)c(-c3ccc(Cl)cc3Cl)n2)ccc1[N+](=O)[O-] (2.5 µM),0
20,O=C1Nc2ccc(I)cc2/C1=C/c1cc(Br)c(O)c(Br)c1 (10 µM),0
21,C=C1C(=O)[C@@]23[C@H](O)C[C@@H]4C(C)(C)C(=O)CC[C@@]4(C)[C@@H]2CC[C@@H]1[C@H]3O [Glaucocalyxin A] (2.5 µM),0
22,C=C1CCC[C@]2(C)C=C3OC(=O)C(C)=C3C[C@@H]12 [Atractylenolide I] (10 µM),0
23,Cc1nn(C)cc1-c1nc2c(N3CCN(Cc4ccc(Cl)cc4)CC3)c(Cl)cnc2[nH]1 (10 µM),0
24,Brc1ccc(CSc2nc3ccccc3o2)cc1 [BMP signaling agonist sb4] (10 µM),0
25,CN1CCN(c2cc(-c3ccncc3)c(-c3ccc4ccccc4c3)nn2)CC1 (10 µM),0
26,COc1cc(-c2cc(OP(=O)(O)O)cc(-c3cc(OC)c(OC)c(OC)c3)c2)cc(OC)c1OC [Stafia-1] (10 µM),0
27,CC(C)(C)Cc1[nH]nc2c1[C@@](C)(c1ccccc1)C1=C(CC(C)(C)CC1=O)N2 (10 µM),0
28,Cc1c(C(=O)Nc2ccc(Oc3ccnc4[nH]cc(-c5ccccc5)c34)c(F)c2)c(=O)n(-c2ccc(F)cc2)n1C (10 µM),0

# 2 entries from above, tab-delimited.
row	SMILES	number of time points
8	CC(Sc1nc2c(cnn2-c2cccc(Cl)c2)c(=O)[nH]1)C(N)=O (stereo not drawn) (10 µM)	0
11	CCC(=O)Nc1cccc(Oc2nc(Nc3ccc(N4CCN(C)CC4)cc3OC)ncc2Cl)c1 (10 µM)	0
